From patent US20150094271A1
Results are given in words; binding and its absence hold for the method and conditions named. Some results given as binding are weak or reduced against the parent protein; the word gives no strength.

Sequences of proteins named here, by UniProt entry; tags and fusion partners are left off. Residues count along the entry.
UniProt Q00987, residues 1-125: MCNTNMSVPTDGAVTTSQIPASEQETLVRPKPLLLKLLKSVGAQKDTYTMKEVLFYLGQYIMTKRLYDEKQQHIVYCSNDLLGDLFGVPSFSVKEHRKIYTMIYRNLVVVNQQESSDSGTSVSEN

Molecular target: HDM2NTD (N-terminal domain of HDM2, amino acids 1 to 125 of NP-002383) (human) (UniProt Q00987)
Experiment: small-angle X-ray scattering of the complex in solution

RMKQLEDKVGELLFSNYWLELEVARLKKLV (designed binder) [leucine zipper variant p53LZ2]
binding: binds
